Assay results from paper PMC4387756.
Results are given in words; binding and its absence hold for the method and conditions named. Binding seen in cells or lysates may run through a third protein. Some entries that bind do so weakly or less than the wild type.

Protein sequences, listed by entry. Tags and fused reporters are not part of them.
UniProt P51788: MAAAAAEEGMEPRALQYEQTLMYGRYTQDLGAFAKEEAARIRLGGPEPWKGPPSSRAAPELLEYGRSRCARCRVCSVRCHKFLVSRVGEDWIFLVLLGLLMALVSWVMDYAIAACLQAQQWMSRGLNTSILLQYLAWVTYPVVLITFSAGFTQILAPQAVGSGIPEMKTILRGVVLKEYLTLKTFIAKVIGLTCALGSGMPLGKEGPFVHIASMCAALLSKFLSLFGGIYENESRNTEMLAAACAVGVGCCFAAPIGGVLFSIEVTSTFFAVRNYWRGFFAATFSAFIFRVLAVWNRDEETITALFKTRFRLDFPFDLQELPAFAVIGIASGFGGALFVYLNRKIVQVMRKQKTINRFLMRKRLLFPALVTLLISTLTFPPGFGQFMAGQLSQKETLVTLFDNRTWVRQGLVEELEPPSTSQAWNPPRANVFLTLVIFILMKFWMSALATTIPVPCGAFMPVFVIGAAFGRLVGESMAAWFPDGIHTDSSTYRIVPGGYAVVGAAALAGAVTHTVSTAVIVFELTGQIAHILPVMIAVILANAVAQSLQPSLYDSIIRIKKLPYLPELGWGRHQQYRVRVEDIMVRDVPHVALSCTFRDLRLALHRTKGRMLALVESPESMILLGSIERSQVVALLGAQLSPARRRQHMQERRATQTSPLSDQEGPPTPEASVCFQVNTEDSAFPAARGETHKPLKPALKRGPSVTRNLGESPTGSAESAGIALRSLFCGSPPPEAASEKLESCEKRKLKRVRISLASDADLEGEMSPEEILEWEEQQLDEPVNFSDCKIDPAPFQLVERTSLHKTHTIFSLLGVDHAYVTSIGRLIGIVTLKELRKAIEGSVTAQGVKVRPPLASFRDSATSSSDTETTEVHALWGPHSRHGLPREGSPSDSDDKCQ

Columns and labels:
[1] = biological target: ClCN2 (chloride channel ClCN2), endogenous (human (endogenous in CFBE)) (UniProt P51788); assay: co-IP; endogenous ClCN2 immunoprecipitated from polarized CFBE cell lysates (protein A/G sepharose beads), blot for ENaCγ; control conditions or 10 mmol/L MβCD on the apical surface for 30 min at 37°C (interaction decreased)
[2] = biological target: full-length FLAG-tagged ClCN2 (WT-ClC2) (UniProt P51788); assay: co-IP; FLAG-tagged wild-type or truncated ClCN2 immunoprecipitated with 1.5 μg FLAG antibody and protein A/G sepharose beads from transfected polarized CFBE cell lysates, blot for endogenous ENaCγ; normalised to the FLAG pulldown

- binding [1]: binds
- binding [2]: binds
B1: epithelial sodium channel gamma subunit (ENaCγ), endogenous (protein, UniProt P51170 1-649)
chain: MAPGEKIKAKIKKNLPVTGPQAPTIKELMRWYCLNTNTHGCRRIVVSRGRLRRLLWIGFTLTAVALILWQCALLVFSFYTVSVSIKVHFRKLDFPAVTICNINPYKYSTVRHLLADLEQETREALKSLYGFPESRKRREAESWNSVSEGKQPRFSHRIPLLIFDQDEKGKARDFFTGRKRKVGGSIIHKASNVMHIESKQVVGFQLCSNDTSDCATYTFSSGINAIQEWYKLHYMNIMAQVPLEKKINMSYSAEELLVTCFFDGVSCDARNFTLFHHPMHGNCYTFNNRENETILSTSMGGSEYGLQVILYINEEEYNPFLVSSTGAKVIIHRQDEYPFVEDVGTEIETAMVTSIGMHLTESFKLSEPYSQCTEDGSDVPIRNIYNAAYSLQICLHSCFQTKMVEKCGCAQYSQPLPPAANYCNYQQHPNWMYCYYQLHRAFVQEELGCQSVCKEACSFKEWTLTTSLAQWPSVVSEKWLLPVLTWDQGRQVNKKLNKTDLAKLLIFYKDLNQRSIMESPANSIEMLLSNFGGQLGLWMSCSVVCVIEIIEVFFIDFFSIIARRQWQKAKEWWAWKQAPPCPEAPRSPQGQDNPALDIDDDLPTFNSALHLPPALGTQVPGTPPPKYNTLRLERAFSNQLTDTQMLDEL
